According to the supplement of paper PMC12819154, “High-throughput peptide-centric local stability assay extends protein–ligand identification to membrane proteins, tissues and bacteria” (Nature Structural & Molecular Biology, 2025):
The other results are listed elsewhere or left out. Most values lie at the level of the controls, where differences are scatter.

Amino acid sequences for entries named in this document (tags omitted). A change or cut given only in a name is not applied to a line headed by its entry.
UniProt Q8N9N8: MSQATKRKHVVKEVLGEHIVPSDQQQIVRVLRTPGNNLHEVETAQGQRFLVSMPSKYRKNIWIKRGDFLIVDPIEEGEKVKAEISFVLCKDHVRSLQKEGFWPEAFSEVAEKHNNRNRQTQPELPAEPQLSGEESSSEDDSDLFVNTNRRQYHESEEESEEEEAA
UniProt Q8N5C7: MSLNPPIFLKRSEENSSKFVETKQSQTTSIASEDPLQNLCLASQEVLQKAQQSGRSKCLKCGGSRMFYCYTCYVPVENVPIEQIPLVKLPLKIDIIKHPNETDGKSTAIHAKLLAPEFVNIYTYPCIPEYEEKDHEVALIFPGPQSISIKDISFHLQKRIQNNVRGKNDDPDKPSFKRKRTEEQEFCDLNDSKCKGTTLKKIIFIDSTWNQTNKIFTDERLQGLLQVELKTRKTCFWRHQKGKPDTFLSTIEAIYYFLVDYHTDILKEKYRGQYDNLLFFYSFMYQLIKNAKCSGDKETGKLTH
UniProt Q8NCN4: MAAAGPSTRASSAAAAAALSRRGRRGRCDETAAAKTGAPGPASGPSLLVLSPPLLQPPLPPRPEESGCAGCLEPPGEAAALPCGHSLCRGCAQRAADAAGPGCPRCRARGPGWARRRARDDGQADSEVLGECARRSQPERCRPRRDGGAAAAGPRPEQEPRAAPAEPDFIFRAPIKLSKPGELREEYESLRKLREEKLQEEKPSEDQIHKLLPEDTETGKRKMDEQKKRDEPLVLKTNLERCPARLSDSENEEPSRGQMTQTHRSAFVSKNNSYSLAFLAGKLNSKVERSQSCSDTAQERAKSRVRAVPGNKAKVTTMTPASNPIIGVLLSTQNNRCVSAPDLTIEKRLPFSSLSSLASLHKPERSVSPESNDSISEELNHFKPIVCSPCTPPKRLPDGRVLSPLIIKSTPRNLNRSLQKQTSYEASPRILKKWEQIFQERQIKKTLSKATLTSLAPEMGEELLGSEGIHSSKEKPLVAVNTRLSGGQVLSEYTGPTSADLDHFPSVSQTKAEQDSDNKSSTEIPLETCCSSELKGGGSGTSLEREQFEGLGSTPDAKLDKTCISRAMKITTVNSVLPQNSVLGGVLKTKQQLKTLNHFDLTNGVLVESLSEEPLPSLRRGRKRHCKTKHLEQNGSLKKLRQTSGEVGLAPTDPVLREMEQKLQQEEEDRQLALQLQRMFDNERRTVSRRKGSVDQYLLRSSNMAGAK
UniProt Q8NC56: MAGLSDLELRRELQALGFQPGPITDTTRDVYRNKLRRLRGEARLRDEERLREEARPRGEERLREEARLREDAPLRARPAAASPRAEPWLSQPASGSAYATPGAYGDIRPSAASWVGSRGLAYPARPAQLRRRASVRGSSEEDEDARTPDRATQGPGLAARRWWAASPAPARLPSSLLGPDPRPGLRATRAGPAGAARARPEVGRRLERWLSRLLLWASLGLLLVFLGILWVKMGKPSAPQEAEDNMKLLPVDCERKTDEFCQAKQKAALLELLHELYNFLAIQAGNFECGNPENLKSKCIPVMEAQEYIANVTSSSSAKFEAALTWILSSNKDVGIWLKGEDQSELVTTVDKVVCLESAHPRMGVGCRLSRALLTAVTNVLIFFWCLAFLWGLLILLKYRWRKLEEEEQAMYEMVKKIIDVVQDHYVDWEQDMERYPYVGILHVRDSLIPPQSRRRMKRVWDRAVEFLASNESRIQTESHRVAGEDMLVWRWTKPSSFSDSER
UniProt Q8N4Q1: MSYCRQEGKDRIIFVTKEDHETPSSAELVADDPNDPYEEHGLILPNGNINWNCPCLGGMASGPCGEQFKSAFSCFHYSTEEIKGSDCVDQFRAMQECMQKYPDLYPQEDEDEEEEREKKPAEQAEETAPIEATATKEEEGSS
UniProt Q8N6Q8: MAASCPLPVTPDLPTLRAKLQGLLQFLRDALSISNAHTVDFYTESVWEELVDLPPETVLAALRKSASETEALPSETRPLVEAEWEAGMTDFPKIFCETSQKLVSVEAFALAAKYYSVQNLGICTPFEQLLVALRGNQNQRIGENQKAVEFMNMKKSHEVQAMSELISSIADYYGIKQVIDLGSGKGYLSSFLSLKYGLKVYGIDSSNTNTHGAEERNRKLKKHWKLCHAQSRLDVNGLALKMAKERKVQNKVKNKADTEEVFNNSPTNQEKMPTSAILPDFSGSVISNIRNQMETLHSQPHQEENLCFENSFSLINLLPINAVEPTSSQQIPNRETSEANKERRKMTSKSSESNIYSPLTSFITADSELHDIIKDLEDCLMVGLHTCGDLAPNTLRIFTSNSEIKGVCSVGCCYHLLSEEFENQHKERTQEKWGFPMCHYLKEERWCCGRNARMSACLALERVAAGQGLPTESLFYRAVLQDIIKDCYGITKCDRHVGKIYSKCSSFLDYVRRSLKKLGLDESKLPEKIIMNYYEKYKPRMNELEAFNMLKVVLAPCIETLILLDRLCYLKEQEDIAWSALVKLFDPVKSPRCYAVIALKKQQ
UniProt Q8N9N7: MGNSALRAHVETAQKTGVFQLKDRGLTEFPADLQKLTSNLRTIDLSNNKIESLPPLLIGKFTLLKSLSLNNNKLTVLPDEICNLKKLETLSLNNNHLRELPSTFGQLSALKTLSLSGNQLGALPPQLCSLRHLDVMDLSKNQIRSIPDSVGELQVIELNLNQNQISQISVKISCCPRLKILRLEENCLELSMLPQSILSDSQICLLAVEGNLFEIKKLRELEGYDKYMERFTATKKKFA
UniProt Q8N5U6: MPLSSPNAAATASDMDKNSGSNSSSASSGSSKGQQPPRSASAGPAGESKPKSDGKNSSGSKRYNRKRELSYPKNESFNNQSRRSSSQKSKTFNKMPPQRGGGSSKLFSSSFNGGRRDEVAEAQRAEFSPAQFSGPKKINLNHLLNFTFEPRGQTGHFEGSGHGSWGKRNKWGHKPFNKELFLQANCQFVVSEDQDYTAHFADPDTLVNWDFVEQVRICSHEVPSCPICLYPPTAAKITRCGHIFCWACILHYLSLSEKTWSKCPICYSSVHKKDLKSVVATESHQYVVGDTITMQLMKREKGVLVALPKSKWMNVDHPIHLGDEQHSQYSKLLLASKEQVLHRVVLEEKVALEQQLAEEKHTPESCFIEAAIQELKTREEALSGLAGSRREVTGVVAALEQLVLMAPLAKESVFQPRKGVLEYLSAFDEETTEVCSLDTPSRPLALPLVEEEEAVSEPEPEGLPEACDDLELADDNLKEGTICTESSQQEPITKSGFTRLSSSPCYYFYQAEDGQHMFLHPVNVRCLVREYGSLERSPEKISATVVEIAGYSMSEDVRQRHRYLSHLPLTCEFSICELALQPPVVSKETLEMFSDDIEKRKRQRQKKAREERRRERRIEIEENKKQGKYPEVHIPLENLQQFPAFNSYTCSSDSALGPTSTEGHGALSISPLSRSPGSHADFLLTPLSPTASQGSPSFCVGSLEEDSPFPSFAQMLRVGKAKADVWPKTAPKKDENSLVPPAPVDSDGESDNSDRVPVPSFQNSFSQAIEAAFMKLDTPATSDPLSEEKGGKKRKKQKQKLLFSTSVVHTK
UniProt Q8NBI5: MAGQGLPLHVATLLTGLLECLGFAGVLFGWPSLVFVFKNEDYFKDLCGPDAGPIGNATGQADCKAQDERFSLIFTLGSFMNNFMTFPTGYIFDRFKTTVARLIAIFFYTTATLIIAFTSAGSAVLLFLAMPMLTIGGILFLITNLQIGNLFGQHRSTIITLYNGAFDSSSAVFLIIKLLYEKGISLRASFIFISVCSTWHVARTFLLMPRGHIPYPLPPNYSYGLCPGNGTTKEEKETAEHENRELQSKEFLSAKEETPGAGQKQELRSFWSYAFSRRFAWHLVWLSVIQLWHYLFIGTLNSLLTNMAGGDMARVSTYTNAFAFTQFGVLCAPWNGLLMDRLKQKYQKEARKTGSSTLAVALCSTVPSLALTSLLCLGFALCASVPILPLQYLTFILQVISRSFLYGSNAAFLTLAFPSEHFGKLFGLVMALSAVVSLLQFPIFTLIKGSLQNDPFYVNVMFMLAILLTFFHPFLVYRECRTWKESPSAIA
UniProt Q8N7K0: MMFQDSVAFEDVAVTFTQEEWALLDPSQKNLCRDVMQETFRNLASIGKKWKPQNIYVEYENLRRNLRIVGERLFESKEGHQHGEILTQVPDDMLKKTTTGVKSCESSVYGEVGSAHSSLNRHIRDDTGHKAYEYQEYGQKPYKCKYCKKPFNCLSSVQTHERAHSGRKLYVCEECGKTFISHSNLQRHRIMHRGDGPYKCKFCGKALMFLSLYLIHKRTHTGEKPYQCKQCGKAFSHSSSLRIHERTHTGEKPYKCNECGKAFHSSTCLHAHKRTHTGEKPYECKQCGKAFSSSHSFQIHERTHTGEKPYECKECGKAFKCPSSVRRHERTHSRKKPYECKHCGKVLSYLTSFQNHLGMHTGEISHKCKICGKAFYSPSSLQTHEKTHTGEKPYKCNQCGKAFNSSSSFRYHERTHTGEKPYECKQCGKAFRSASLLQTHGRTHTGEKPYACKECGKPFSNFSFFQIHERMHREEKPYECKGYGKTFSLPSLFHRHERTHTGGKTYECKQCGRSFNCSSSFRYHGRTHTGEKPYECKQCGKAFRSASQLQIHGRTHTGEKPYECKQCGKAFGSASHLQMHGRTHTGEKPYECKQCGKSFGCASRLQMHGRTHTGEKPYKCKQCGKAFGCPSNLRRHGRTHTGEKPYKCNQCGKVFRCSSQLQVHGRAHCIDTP
UniProt Q8NBJ7: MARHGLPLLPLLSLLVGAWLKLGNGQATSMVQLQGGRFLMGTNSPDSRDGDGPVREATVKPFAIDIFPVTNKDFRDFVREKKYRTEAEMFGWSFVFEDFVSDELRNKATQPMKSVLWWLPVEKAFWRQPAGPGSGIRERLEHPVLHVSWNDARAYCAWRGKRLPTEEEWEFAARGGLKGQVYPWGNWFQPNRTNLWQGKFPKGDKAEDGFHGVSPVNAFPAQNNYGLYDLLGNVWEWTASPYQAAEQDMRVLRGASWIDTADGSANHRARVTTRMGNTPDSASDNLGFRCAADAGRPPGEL

Each target was assayed with Cc1nc(Nc2ncc(C(=O)Nc3c(C)cccc3Cl)s2)cc(N2CCN(CCO)CC2)n1 [dasatinib] (assay: log2 fold change of tryptic peptide abundance, ligand vs vehicle (limited proteolysis) (log2 ratio); higher = more trypsin-susceptible (destabilized)). Settings: ligand concentration: 5 uM; sample: K562 cleared lysate.

Target | log2 fold change
EIF1AD (peptide sequence: AEISFVLCK, peptide start residue: 82) (UniProt Q8N9N8) | 0.14
DTWD1 (peptide sequence: DISFHLQK, peptide start residue: 151) (UniProt Q8N5C7) | -0.166
RNF169 (peptide sequence: LLPEDTETGKR, peptide start residue: 211) (UniProt Q8NCN4) | -0.337
LEMD2 (peptide sequence: LREDAPLR, peptide start residue: 68) (UniProt Q8NC56) | -0.602
CHCHD4 (peptide sequence: SYCRQEGK, peptide start residue: 2) (UniProt Q8N4Q1) | 0.316
UniProt Q8N6Q8 (peptide sequence: LDVNGLALK, peptide start residue: 233) | 0.346
LRRC57 (peptide sequence: AHVETAQK, peptide start residue: 8) (UniProt Q8N9N7) | -0.153
RNF10 (peptide sequence: NESFNNQSR, peptide start residue: 74) (UniProt Q8N5U6) | -0.441
SLC43A3 (peptide sequence: ETAEHENR, peptide start residue: 237) (UniProt Q8NBI5) | -0.0923
UniProt Q8N7K0 (peptide sequence: DVMQETFR, peptide start residue: 40) | 0.102
SUMF2 (peptide sequence: ERLEHPVLHVSWNDAR, peptide start residue: 138) (UniProt Q8NBJ7) | -0.489
